Three molecules from patent US20230391772A1, “METHODS AND COMPOSITIONS FOR TARGETED PROTEIN DEGRADATION” (Ranok Therapeutics (Hangzhou) Co. Ltd., priority 2020, published 2023) can be followed below.

pEC50, pIC50: −log10 of the molar value. The match of structure and compound is tentative.

Experiment [1] concerns NCI-H358 human non-small cell lung cancer. As to the kind of experiment: NCI-H358 CCK-8 proliferation assay. The following applies: read-out: NCI-H358 CCK-8; NCI-H358 cells, 72 hr. As for the experimental part: The following cancer cell lines were employed: BT-474 human breast carcinoma (ATCC, #HTB-20); MIA PaCa-2 human pancreatic carcinoma [2 copies KRAS(G12C)](ATCC, #CRL-1420); NCI-H23 human non-small cell lung cancer [1 copy KRAS(G12C)](ATCC, #CRL-5800); NCI-H358 human non-small cell lung cancer [1 copy KRAS(G12C)](ATCC, #CRL-5807); LU65A human lung carcinoma (Pharmaron, Beijing, China). Cell lines were cultured essentially according to ATCC and Pharmaron recommendations.
Cancer Cell Line Proliferation (CCK-8) Assays
Cells were plated in 96-well tissue culture plates at 4,000 cells/well and incubated at 37° C./5% CO2 for 24 hr. 3-fold serial dilutions of each test compound were prepared ranging from 20 μM to 1.02 nM. Cells were then treated with test compounds at various concentrations with a final concentration of 0.5% DMSO/well, and then incubated at 37° C./5% CO2 for 72 hr. 10 l the cell proliferation detection reagent CCK-8 (Dojindo Molecular Technologies, #CK04) was added to each well and incubated at 37° C./5% CO2 for 3-4 hr and the absorbance at 450 nm measured using an Perkin Elmer EnVision Plate Reader. Compound inhibition of was determined by the following equation and EC50 values (the concentration at which 50% of the maximal inhibition occurs) calculated using GraphPad Prism 7 software:
% Inhibition=100−(D−B)/(S−B)*100%. • S: Absorbance of cells treated with DMSO • D: Absorbance of compound-treated cells • B: Absorbance of medium with DMSO without cells
On the technique in general: Tetrazolium assays rely on reduction of a dye to a coloured formazan, in cell work by metabolically active cells.

The target in experiment [2] is T1, HSP90a protein (Homo sapiens, UniProt P07900). In words: HSP90α-binding fluorescent polarization (FP) assay, BODIPY-labeled RNK04010 probe. The conditions noted are these: read-out: HSP90a binding (BODIPY); FP competition with RNK04010 (BODIPY-labeled), 5 nM, 300 min at 25° C. As for the experimental part: (§1) HSP90α-Binding Fluorescent Polarization (FP) Assay
(§2) Binding of test compounds to HSP90a protein was measured by fluorescent polarization (FP) using the HSP90a (N-terminal) Assay Kit (BPS Bioscience, #50298), following the manufacturer's instructions, except as noted. Fluorescently labeled HSP90-binding compounds, either the provided FITC-geldanamycin (5 nM final concentration) or RNK04010, a triazolone-based HSP90 binding small molecule labeled with BODIPY through a piperizine-phenyl linker (5 nM final concentration) were employed. A 2.5-fold serial dilution of each test compound ranging from 20 μM to 5.2 nM was assayed for binding to HSP90a. After the final step of adding HSP90a protein to each assay well, plates were mixed by brief shaking, incubated at 25° C. for 120 min for FITC-geldanamycin or 300 min for RNK04010, and fluorescence was measured using a PerkinElmer EnVision Plate Reader. Background-subtracted mP values were calculated from raw data and a four-parameter “log[inhibitor] vs. response” curve was fitted and IC50 values (the concentration at which 50% of the maximal inhibition occurs) calculated using GraphPad Prism 7 software.

For experiment [3], the target named is T1, HSP90a protein. As to the kind of experiment: HSP90α-binding fluorescent polarization (FP) assay, FITC-geldanamycin probe. The following applies: read-out: HSP90a binding (FITC); FP competition with FITC-geldanamycin, 5 nM, 120 min at 25° C. As for the experimental part:
as §1, §2

`CC(C)c1cc(-c2nnc(O)n2-c2ccc(CN3CCN(CC4CCN(c5nc6c(c(N7CCN(C(=O)C(F)(F)F)[C@@H](CC#N)C7)n5)CCN(c5cccc7cccc(Cl)c57)C6)CC4)CC3)cc2)c(O)cc1O`: the pEC50 in experiment [1] is < 6.00. Also, the pIC50 at HSP90a protein [2] was 6.00 to 7.00.

For the molecule `CCC(=O)N1CCN(c2nc(OCCC(=O)N3CCC(CN4CCN(Cc5ccc(-n6c(O)nnc6-c6cc(C(C)C)c(O)cc6O)cc5)CC4)CC3)nc3c2CCN(c2cc(O)cc4ccccc24)C3)CC1`, in experiment [1], the pEC50 was 6.00 to 7.00. In addition, at HSP90a protein [3], the pIC50 is > 7.00.

Consider `C=C(F)C(=O)N1CCN(c2nc(OC[C@@H]3CCN(C(=O)COc4ccc(Nc5cc(-n6nc(C(F)(F)F)c7c6CC(C)(C)CC7=O)ccc5C(N)=O)cc4)C3)nc3c2CCN(c2cccc4cccc(Cl)c24)C3)C[C@@H]1CC#N`, for which, in experiment [1], the pEC50 was < 6.00. Moreover, the pIC50 at HSP90a protein [2] was < 6.00.
